Laboratory results: PubChem BioAssay AID2685 (National Center for Advancing Translational Sciences (NCATS), 2010)
This is one part of the list. The main result of the screen is listed elsewhere. These columns were measured beside it and carry no call. The list favours compounds with an active or inconclusive main result. Potencies come from curve fits of mixed quality, noted in brackets.

Assay: qHTS Assay for Lipid Storage Modulators in Drosophila S3 Cells;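 on cell number change: cells counted by Cell Tracker Red CMTPX staining in the red channel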
Conditions: BODIPY lipid droplet fluorescence, 18-24 h; for cell number change: measured here: cell count max response, cells fed with added oleic acid
Method in brief: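 Laser-scanning cytometry quantifies lipid droplet accumulation (500–530 nm total intensity; droplet/cell object ratio) in oleic acid-fed (400 uM added) Drosophila S3 cells treated with a concentration series. 20 uM Triacsin C defined 100% inhibition.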

[1] = measured here: cell number channel AC50, cells fed with added oleic acid
[2] = measured here: lipid fluorescence (Fed channel) AC50, cells fed with added oleic acid

## COC(=O)c1sc(N)c(C(=O)OC)c1COC(=O)C1CC(=O)N(Cc2ccco2)C1 (configuration not stated)
  cell number change: 167%
[1]
  AC50: 2.91 µM [rising, full curve]
[2]
  AC50: 2.31 µM [rising, full curve]

## FC(F)(F)c1nnc(Nc2ccc(Cl)cc2)s1
[2]
  AC50: 1.3 µM [rising, full curve]

## Cc1ccc(S(=O)(=O)Nc2nc3ccccc3nc2NCC2CCCO2)c(C)c1 (configuration not stated)
  cell number change: 24%
[1]
  AC50: 0.00461 µM [rising, full curve, poor fit]
[2]
  AC50: 2.31 µM [rising, partial curve, poor fit]

## COc1ccc(C(=O)NCc2nnc(SCC(=O)Nc3nc4ccc(C)cc4s3)o2)cc1OC
  cell number change: -2.98%
[2]
  AC50: 0.82 µM [falling, full curve]

## CCCCOC(=O)CCn1[nH]c(=O)c2ccccc2c1=O
  cell number change: -4.43%
[2]
  AC50: 0.58 µM [falling, single point]

## O=C(c1ccco1)N1CCN(Cc2cccc([N+](=O)[O-])c2)CC1
  cell number change: 28.2%

## CC1(C(=O)O)Cc2ccccc2C(=O)O1 (configuration not stated)
  cell number change: -116%
[1]
  AC50: 20.6 µM [falling, partial curve]

## Cc1ccccc1CCNC(=O)C1CC(O)CN1C(=O)Nc1ccccc1 (configuration not stated)
  cell number change: 13.7%
[2]
  AC50: 29.1 µM [falling, single point]

## CC(C)CC(=O)NN(C)c1nc(-c2ccccc2)nnc1C(F)(F)F
[2]
  AC50: 32.6 µM [rising, partial curve]

## COc1cc(/C=C/C(=O)OC2CC3CCC2(C)C3(C)C)ccc1O (configuration not stated)
  cell number change: -75.9%
[1]
  AC50: 25.9 µM [falling, single point]

## Cn1c(N)c(C(=O)COC(=O)C2(c3ccc(Cl)cc3)CCCC2)c(=O)n(C)c1=O
  cell number change: -10.3%
[2]
  AC50: 6.51 µM [rising, partial curve, poor fit]

## Cc1ccc(S(=O)(=O)N(C)C)cc1NC(=O)/C=C/c1cccs1
  cell number change: 11.7%
[2]
  AC50: 4.11 µM [rising, partial curve]

## CCOc1ccc(NC(=O)Cn2cc(C(=O)C3CC3)c3ccccc32)cc1
  cell number change: -3.85%
[2]
  AC50: 6.51 µM [falling, single point]

## COc1ccccc1NC(=O)CSc1nnc(Cc2ccccc2)o1
  cell number change: 5.6%

## COc1ccc(CN(CC2CCC(C(=O)O)CC2)C(=S)Nc2cc(C)ccc2C)cc1 (configuration not stated)
[1]
  AC50: 2.31 µM [rising, partial curve, poor fit]

## Fc1cccc(F)c1/C=N/NC(=S)Nc1cccnc1
  cell number change: 8.34%
[2]
  AC50: 0.146 µM [falling, full curve, poor fit]

## CCOC(=O)C1=C(C)Nc2sc(C(=O)c3ccc(F)cc3)c(N)c2C1c1ccc(C(=O)OC)cc1 (configuration not stated)
  cell number change: 0.427%
[2]
  AC50: 2.06 µM [rising, partial curve]

## CCC1COCCS(=O)(=O)N1Cc1ccc(F)cc1 (configuration not stated)
  cell number change: 32%
[1]
  AC50: 0.259 µM [rising, full curve, poor fit]
[2]
  AC50: 0.116 µM [rising, full curve, poor fit]

## CC(=O)N1c2ccc(S(=O)(=O)NCCC(=O)NC3CCCC(C)C3C)cc2CC1C (configuration not stated)
  cell number change: 23.5%

## Cc1nn(Cc2ccccc2Cl)c(C)c1C(=O)NCCN1C(=O)S/C(=C\c2ccccc2)C1=O
  cell number change: -70.8%
[1]
  AC50: 16.4 µM [falling, partial curve]
[2]
  AC50: 20.6 µM [falling, single point]

## CNS(=O)(=O)c1cc(NC(=O)c2cnc(SC)n2-c2ccccc2)ccc1C
  cell number change: -3.6%
[2]
  AC50: 0.103 µM [rising, full curve, poor fit]

## CCN(CC)S(=O)(=O)c1ccc(NS(=O)(=O)c2cccc(C)c2)cc1
  cell number change: 3.61%
[1]
  AC50: 0.0651 µM [rising, full curve, poor fit]
[2]
  AC50: 32.6 µM [falling, single point]

## N#C/C(=C(/O)c1ccc(F)cc1)c1nc2ccccc2s1
  cell number change: -11.3%
[2]
  AC50: 18.4 µM [falling, single point]

## CC(C(=O)NC1=NCCS1)N1C(=O)C2CC=CCC2C1=O (configuration not stated)
[2]
  AC50: 16.4 µM [falling, partial curve]

## CCCCn1nc(NC(=O)CC(C)C)c2cc3cc(OC)ccc3nc21
  cell number change: -11.7%
[2]
  AC50: 29.1 µM [falling, single point]

## CCOc1ccc(S(=O)(=O)N(CC)CC(=O)NC2CC2)cc1
  cell number change: 7.37%

## CCCCn1c(N)c(N(CC(C)C)C(=O)C2CCN(S(=O)(=O)c3ccccc3)CC2)c(=O)[nH]c1=O
  cell number change: -1.82%
[2]
  AC50: 6.51 µM [rising, single point]

## Cn1cnnc1SCC(=O)NC1CCCc2ccccc21 (configuration not stated)
  cell number change: -23.8%
[2]
  AC50: 2.91 µM [falling, single point]

## CC(C)CN(C(=O)CSc1nnnn1C)C1CCS(=O)(=O)C1 (configuration not stated)
  cell number change: -13.2%

## CC1(C)CC(=O)C(N=Nc2ccc(S(=O)(=O)N3CCCCCC3)cc2)=C(O)C1
  cell number change: 27.2%
[1]
  AC50: 2.31 µM [rising, full curve, poor fit]

## COc1ccccc1CCNC(=O)c1csc2c1CCCC2
  cell number change: -6.78%
[2]
  AC50: 0.58 µM [falling, single point]

## O=[N+]([O-])c1ccccc1OCCCOc1cccc2cccnc12
  cell number change: -9.49%
[2]
  AC50: 1.64 µM [falling, partial curve]

## COc1ccccc1/C=C/C=N/N1CCN(Cc2cccc3ccccc23)CC1
  cell number change: -4.9%
[1]
  AC50: 0.00461 µM [falling, full curve, poor fit]

## CCc1nnc(N/N=C/c2c(Cl)cccc2Cl)n1N
  cell number change: -20%

## CCOc1ccc(C(=O)NCC(=O)OCc2cc([N+](=O)[O-])cc3c2OCOC3)cc1OCC
  cell number change: 22.5%

## Cc1nc2ccc(S(=O)(=O)NCC(=O)NCc3ccc(Cl)cc3)cc2s1
  cell number change: 19.8%
[2]
  AC50: 29.1 µM [rising, single point]

## Cc1c(CC(=O)N2CCN(C(=O)C3COc4ccccc4O3)CC2)c(=O)oc2c(C)c(O)ccc12 (configuration not stated)
  cell number change: -3.67%

## CN(C)[C@H]1N(C(=O)c2ccc(Br)cc2)N=C2c3ccccc3S(=O)(=O)N21
  cell number change: 75.3%
[1]
  AC50: 3.26 µM [rising, full curve]
[2]
  AC50: 0.517 µM [rising, single point]

## CCN(CC)S(=O)(=O)c1cc(NC(=O)CNc2cccc(S(=O)(=O)N3CCCC3)c2)ccc1C
  cell number change: 58.2%
[1]
  AC50: 0.82 µM [rising, full curve]

## CCSc1nc(-c2ccc(OC)cc2)cc(-c2ccc(OC)cc2)c1C#N
  cell number change: 79.7%
[1]
  AC50: 29.1 µM [rising, single point]
[2]
  AC50: 20.6 µM [rising, partial curve]

## CCN(CC(=O)Nc1ccccc1OC)C(=O)c1ccccc1Sc1ccccc1C#N
  cell number change: -11.1%
[2]
  AC50: 6.51 µM [falling, partial curve, poor fit]

## Cn1nnc2c[n+](CC(=O)c3ccc(Cl)cc3)cc(Br)c21
  cell number change: -12.7%
[1]
  AC50: 0.461 µM [falling, partial curve]
[2]
  AC50: 1.84 µM [falling, partial curve, poor fit]

## NC(=O)CCS(=O)(=O)c1ccc(Cl)cc1
  cell number change: -27.1%
[1]
  AC50: 0.366 µM [falling, full curve, poor fit]
[2]
  AC50: 0.259 µM [falling, full curve]

## COC(=O)c1sc(NC(=S)NC(=O)c2cccc(C)c2)nc1C
  cell number change: -3.83%

## CCOC(=O)c1c(-c2ccc(OC)cc2)oc2cc(Br)c(O)cc12
  cell number change: -47.1%
[1]
  AC50: 20.6 µM [falling, single point]
[2]
  AC50: 18.4 µM [falling, single point]

## Cn1c(SCc2nc3ccccc3s2)nnc1-c1cccs1
  cell number change: -12%

## Cc1ccc(-n2c([C@@H]3C[C@H]3c3ccccc3)n[nH]c2=S)cc1
  cell number change: -11.2%
[2]
  AC50: 0.00411 µM [falling, full curve, poor fit]

## Oc1ccccc1OCCOc1ccccc1OCCOc1ccccc1O
  cell number change: 11.8%
[2]
  AC50: 6.51 µM [falling, partial curve]

## COc1ccc2c(c1)SCCC2=O
[1]
  AC50: 6.51 µM [falling, single point]

## CCOC(=O)c1nnn(-c2nonc2N)c1-c1ccc(OCC)cc1
  cell number change: 137%

## CC1CCN(C(=O)COC(=O)Cc2c[nH]c3ccccc23)CC1
  cell number change: -2.48%
[2]
  AC50: 0.058 µM [rising, full curve, poor fit]

## CN(C)c1nc(C(=O)O)nc(N2CCOCC2)n1
  cell number change: 14.1%

## Cc1cc([N+](=O)[O-])nn1CC(=O)NCc1ccccc1
  cell number change: -14.3%

## CC1(C)CC2CC(C)(CN2S(=O)(=O)c2ccc(C(=O)Nc3ccc(Cl)c(S(=O)(=O)N4CCOCC4)c3)cc2)C1 (configuration not stated)
[2]
  AC50: 7.31 µM [falling, partial curve]

## COc1ccccc1N1CCN(C(=O)c2ccncc2)CC1
  cell number change: 0.323%
[2]
  AC50: 3.26 µM [falling, single point]

## Clc1cccc(NCc2nnc(SCc3ccccc3Cl)o2)c1
  cell number change: 63%
[1]
  AC50: 20.6 µM [rising, single point]

## CC(C)(C)c1nnc(NC(=O)CCS(=O)(=O)Cc2ccccc2)s1
  cell number change: 2.14%
[2]
  AC50: 6.51 µM [rising, single point]

## CC(=O)c1sc(N/N=C\c2ccc(N(C)C)cc2)nc1C
  cell number change: -20.8%
[2]
  AC50: 29.1 µM [falling, single point]

## COc1cccc(N2CCN(Cc3ccsc3)CC2)c1
  cell number change: 13.5%
[2]
  AC50: 0.517 µM [falling, partial curve]

## O=C(C1CCC1)N1CCN(Cc2ccccc2)CC1
  cell number change: -0.975%
[2]
  AC50: 0.0058 µM [rising, full curve, poor fit]

## COc1ccc2c(c1)c(C(=O)N/N=C/c1ccc(O)c(O)c1)c(C)n2C
  cell number change: -9.16%
[1]
  AC50: 1.03 µM [falling, full curve]

## C=CC1C(N2CCOCC2)C(C)(C)S1(=O)=O (configuration not stated)
  cell number change: -2.98%
[2]
  AC50: 29.1 µM [falling, single point]

## CN(CC(=O)Nc1ccc(Cl)c(C(F)(F)F)c1)C(=O)Cc1c[nH]c2ccccc12
  cell number change: 22.5%
[2]
  AC50: 1.64 µM [rising, partial curve, poor fit]
